The term AC50 denotes the concentration at which the activity in the assay is half-maximal. The low end stands for activity at low concentration, the high end for activity only at high concentration.

The other results are listed elsewhere or left out. The main result of the screen is listed elsewhere. These columns were measured beside it and carry no call. Compounds called inactive in the main read-out are mostly missing here. The note in brackets gives the kind of curve behind each potency; many fits are weak.

The nature of one assay: S16 Schwann cell PMP22 intronic element beta-lactamase assay (AID 624044). To be noted: S16 rat Schwann cells, PMP22 element beta-lactamase FRET, 24 h; measured here: 460 nm blue channel. A digest of the protocol: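 Beta-lactamase reporter under a PMP22 intronic regulatory element in stable S16 rat Schwann cells; 24 h compound exposure. 460 nm blue signal normalized between DMSO (0%) and potassium clavulanate, with 535 nm FRET tracking viability; curves classed by r2 and response.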
As to `OCC(O)C(O)C(O)C(O)CO` (stereo not drawn), the AC50 is 7.94 µM [falling, partial curve]. On the same count and under the same terms, the value for `COc1ccc(CN2CCN(C(c3ccc(F)cc3)c3ccc(F)cc3)CC2)c(OC)c1OC` was 25.1 µM [rising, single point]; that for `CC1CCC(O)C/C1=C\C=C1/CCCC2(C)C1CCC2C(C)/C=C/C(C)C(C)C` (stereo not drawn) was 8.91 µM [falling, single point]. On the same count and under the same terms, the value for `CC[C@@]12CCCN3CCc4c(n(c5ccccc45)[C@](O)(C(=O)OC)C1)C32` (stereo partly drawn) was 1.26 µM [falling, full curve, poor fit]; that for `CN(C)CCc1c[nH]c2ccc(Cn3cncn3)cc12` was 0.00631 µM [falling, full curve, poor fit]. On the same count and under the same terms, the value for `OCC1(CO)COC(C(Cl)(Cl)Cl)OC1` was 15.8 µM [falling, single point]; that for `COC(=O)C(c1ccccc1Cl)N1CCc2sccc2C1` (stereo not drawn) was 12.6 µM [falling, single point].

Staying with this assay, now noted: S16 rat Schwann cells, PMP22 element beta-lactamase FRET, 24 h; measured here: 530 nm viability channel.
Take `CC[C@@H](C)C(N)C(=O)O` (stereo partly drawn): the half-maximal activity concentration (AC50) was 1.58 µM [falling, full curve, poor fit]. Regarding `O=C(O)CCCc1ccccc1`, the half-maximal activity concentration (AC50) was 0.2 µM [falling, full curve].

`CO/N=C(/C(=O)N[C@@H]1C(=O)N2C(C(=O)O)=C(C[n+]3ccc(N)n3CCO)CS[C@H]12)c1csc(N)n1`: the AC50 is 3.16 µM [falling, full curve]. The same measure, in the same setting: the same measure for `CNC1C(O)C(OC2C(N)CC(N)C(OC3OC(CN)=CCC3N)C2O)OCC1(C)O` (stereo not drawn): 3.98 µM [falling, full curve]; for `CCC(=O)OC1C(N(C)C)CC(C)O[C@H]1O[C@H]1[C@H](C)[C@@H](O[C@H]2CC(OC)[C@@H](O)C(C)O2)[C@H](C)C(=O)O[C@@H](CC)[C@](C)(O)[C@@H](O)[C@H](C)C(=O)[C@@H](C)C[C@]1(C)O` (stereo partly drawn): 1.41 µM [falling, full curve].

With `NC(=O)C1CC2(NC(=O)NC2=O)c2cc(F)ccc2O1` (stereo not drawn), the half-maximal activity concentration (AC50) was 2.82 µM [falling, full curve].

These data come from PubChem BioAssay (NCATS).
